No constants are given. Whether binding was seen depends on the method and setting. In cells and extracts the contact can be indirect. Some binding calls cover weakened binding; strength is not graded here. For part of these data: Where a sequence is shown, tags or fusion partners need not be part of it.
Key:
Test in all cases: co-IP; tagged proteins expressed in HEK293T cells ('pull-down assays'); lysates in EBC200 buffer (50 mM Tris-HCl pH 7.4, 150 mM NaCl, 0.5% NP-40, 1 mM EDTA), pull-down with the indicated antibodies and protein A/G-Sepharose beads; which partner was precipitated is not told
[1] = target: GFP-tagged human TNKS (human) (UniProt O95271)
[2] = target: T1, GFP-tagged human TNKS2 (human) (UniProt Q9H2K2)
T1 sequence: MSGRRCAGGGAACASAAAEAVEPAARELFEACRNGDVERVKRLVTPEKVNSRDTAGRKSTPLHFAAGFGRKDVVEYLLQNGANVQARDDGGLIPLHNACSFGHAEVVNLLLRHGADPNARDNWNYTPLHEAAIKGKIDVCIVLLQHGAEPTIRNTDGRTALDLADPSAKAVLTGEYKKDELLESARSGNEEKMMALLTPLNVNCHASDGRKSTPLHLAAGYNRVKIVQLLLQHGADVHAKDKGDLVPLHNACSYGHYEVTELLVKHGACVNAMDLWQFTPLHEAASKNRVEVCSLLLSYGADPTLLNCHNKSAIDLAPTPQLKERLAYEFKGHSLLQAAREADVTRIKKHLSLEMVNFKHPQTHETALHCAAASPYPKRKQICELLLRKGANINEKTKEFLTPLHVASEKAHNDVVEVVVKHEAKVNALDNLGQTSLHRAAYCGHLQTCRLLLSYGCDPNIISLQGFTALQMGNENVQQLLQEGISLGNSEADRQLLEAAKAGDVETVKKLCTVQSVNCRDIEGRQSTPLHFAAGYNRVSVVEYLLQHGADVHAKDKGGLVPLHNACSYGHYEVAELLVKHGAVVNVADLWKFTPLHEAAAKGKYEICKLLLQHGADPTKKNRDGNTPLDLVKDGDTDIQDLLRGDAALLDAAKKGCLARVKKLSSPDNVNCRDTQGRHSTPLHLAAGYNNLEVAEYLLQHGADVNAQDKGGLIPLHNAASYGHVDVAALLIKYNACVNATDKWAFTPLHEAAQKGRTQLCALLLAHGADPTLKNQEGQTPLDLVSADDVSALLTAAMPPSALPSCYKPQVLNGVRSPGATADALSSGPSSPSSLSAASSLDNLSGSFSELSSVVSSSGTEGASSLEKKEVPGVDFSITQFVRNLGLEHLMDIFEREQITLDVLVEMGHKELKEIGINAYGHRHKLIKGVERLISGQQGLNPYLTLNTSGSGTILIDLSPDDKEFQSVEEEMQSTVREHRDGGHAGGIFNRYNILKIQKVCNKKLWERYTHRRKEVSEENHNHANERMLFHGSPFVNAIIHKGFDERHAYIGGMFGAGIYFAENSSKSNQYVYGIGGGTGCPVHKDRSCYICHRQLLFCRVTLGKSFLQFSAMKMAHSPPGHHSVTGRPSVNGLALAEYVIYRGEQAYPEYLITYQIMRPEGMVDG

By UniProt entry, the sequences of proteins in these tests, tags left out.
UniProt O95271: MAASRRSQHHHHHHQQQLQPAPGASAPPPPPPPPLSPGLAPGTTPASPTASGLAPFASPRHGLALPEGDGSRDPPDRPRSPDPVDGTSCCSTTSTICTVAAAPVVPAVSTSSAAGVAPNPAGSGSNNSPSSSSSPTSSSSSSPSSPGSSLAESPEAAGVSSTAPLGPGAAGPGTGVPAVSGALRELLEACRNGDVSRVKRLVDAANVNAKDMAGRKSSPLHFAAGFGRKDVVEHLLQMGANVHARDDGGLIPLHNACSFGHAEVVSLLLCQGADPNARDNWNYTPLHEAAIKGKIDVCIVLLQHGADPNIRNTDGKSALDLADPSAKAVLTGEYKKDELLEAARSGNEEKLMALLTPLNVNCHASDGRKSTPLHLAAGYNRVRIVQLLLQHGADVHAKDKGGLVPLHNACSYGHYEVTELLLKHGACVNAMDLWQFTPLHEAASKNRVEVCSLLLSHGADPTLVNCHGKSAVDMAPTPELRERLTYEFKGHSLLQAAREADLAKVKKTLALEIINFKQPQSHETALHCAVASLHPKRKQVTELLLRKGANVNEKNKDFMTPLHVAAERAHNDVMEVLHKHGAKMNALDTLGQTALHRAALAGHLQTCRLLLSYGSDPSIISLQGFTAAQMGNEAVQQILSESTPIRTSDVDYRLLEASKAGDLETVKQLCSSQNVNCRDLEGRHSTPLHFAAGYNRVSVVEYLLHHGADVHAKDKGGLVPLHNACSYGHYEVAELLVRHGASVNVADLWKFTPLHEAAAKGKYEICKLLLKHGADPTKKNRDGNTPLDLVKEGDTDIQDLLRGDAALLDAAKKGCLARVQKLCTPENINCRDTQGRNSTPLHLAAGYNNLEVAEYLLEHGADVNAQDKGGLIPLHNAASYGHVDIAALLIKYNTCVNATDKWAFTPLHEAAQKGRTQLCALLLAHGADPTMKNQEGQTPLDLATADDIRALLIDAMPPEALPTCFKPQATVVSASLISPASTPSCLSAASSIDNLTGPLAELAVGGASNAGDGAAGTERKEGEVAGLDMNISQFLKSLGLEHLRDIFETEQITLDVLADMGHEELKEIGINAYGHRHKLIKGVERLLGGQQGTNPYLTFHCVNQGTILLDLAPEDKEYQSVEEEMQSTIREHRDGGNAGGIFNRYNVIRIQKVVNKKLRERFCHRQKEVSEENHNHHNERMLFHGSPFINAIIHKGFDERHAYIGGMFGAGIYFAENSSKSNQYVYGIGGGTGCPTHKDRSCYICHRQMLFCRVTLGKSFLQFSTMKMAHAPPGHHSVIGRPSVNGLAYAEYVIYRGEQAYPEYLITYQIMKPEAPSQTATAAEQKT
UniProt P48436: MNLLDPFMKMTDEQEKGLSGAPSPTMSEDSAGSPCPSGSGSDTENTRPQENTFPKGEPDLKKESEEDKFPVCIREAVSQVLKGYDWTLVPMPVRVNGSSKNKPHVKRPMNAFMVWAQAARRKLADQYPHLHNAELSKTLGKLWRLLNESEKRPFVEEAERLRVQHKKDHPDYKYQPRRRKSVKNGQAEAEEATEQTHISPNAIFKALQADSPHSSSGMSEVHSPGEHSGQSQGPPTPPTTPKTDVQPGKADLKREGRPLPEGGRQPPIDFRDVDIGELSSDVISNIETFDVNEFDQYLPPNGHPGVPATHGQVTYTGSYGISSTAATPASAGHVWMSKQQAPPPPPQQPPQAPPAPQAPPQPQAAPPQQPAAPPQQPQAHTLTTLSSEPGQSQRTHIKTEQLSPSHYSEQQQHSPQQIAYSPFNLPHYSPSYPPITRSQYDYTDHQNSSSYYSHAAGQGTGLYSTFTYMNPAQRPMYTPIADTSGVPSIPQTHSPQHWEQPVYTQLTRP

[3] = target: T2, Myc-tagged human TNKS2 (human) (UniProt Q9H2K2)
T2 sequence: T1 sequence

binding [1]: binds | binding [2]: binds | binding [3]: binds
Substance: HA-tagged wild-type human SOX9 (from UniProt P48436 1-509)
